This passage reports binding results from publication doi:10.1101/2024.12.30.630684.

Sequences of proteins named here, by UniProt entry; tags and fusion partners are left off. Residues count along the entry.
UniProt Q01149, residues 86-1125: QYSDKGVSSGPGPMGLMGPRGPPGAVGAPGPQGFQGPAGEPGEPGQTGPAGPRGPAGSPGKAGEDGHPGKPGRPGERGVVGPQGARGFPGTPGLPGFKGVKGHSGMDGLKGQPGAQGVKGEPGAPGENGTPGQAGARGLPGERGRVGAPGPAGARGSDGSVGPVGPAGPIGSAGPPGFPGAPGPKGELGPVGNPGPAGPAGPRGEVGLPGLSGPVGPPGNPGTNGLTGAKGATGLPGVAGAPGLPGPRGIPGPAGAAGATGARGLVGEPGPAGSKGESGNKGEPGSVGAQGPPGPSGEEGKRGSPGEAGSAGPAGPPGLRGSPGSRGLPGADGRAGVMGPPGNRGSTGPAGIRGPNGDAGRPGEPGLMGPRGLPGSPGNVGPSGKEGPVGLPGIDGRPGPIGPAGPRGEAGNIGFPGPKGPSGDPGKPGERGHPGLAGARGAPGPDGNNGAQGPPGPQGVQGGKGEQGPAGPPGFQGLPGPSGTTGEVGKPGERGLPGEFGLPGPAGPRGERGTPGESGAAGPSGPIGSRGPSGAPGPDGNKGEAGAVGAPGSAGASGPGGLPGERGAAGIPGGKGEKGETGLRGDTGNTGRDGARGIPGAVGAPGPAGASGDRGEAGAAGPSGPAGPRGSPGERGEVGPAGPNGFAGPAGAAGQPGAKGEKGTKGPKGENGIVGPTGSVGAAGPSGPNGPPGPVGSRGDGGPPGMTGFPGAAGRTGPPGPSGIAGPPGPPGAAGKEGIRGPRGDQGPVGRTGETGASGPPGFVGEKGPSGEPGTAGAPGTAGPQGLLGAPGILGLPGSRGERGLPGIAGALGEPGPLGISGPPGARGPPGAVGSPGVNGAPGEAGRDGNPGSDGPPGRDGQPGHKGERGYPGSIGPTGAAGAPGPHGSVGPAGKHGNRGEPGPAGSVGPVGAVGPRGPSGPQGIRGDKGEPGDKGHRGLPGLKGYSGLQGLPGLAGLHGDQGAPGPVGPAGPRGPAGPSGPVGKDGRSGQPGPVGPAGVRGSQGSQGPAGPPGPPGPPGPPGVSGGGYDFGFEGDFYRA
UniProt O88207, residues 37-1838: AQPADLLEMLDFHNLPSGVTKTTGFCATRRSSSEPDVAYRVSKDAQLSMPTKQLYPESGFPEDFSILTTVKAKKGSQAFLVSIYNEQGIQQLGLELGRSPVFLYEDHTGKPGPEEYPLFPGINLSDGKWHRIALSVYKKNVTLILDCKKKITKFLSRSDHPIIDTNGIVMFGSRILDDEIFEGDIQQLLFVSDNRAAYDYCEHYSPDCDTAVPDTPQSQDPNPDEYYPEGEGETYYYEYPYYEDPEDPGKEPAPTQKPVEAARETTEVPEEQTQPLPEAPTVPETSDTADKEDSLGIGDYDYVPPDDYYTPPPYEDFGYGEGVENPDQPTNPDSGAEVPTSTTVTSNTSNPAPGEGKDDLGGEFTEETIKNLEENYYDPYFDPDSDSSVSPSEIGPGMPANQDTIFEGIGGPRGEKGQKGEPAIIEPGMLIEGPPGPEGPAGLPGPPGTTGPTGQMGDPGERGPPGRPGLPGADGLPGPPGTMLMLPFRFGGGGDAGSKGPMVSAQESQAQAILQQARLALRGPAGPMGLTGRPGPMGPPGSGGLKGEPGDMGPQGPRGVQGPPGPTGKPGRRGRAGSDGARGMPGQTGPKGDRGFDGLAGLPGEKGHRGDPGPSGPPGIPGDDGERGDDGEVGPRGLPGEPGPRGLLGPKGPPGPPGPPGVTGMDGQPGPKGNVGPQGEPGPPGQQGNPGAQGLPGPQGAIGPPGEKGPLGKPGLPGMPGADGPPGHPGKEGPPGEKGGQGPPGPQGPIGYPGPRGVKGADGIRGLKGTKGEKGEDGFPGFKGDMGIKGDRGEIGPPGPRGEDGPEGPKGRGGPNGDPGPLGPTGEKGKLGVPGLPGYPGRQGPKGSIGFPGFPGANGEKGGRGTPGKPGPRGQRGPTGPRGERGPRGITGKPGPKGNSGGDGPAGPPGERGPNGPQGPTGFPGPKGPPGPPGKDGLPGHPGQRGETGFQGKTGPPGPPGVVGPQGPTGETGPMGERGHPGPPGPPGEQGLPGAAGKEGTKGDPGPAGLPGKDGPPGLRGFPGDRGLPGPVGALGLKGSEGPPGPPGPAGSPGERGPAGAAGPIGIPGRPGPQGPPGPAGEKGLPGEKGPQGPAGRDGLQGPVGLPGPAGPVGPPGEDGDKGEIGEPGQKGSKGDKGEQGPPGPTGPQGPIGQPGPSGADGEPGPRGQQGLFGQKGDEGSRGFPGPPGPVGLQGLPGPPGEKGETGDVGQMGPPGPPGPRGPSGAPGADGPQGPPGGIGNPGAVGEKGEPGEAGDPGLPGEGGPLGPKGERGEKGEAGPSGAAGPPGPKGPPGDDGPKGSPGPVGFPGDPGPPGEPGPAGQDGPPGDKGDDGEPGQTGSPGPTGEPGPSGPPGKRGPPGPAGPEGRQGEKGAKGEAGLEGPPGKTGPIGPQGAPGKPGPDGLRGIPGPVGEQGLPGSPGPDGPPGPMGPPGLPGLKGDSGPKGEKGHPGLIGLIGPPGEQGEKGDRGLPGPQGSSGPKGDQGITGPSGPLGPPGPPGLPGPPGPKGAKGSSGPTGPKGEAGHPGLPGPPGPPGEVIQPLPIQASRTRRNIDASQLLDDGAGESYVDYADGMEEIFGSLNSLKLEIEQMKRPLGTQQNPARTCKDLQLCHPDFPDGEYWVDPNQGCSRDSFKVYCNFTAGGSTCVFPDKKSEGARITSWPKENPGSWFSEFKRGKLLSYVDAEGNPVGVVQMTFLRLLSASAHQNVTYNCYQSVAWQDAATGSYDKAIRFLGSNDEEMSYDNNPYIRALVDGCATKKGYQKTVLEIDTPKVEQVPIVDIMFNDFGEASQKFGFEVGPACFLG
UniProt P09055, residues 21-798: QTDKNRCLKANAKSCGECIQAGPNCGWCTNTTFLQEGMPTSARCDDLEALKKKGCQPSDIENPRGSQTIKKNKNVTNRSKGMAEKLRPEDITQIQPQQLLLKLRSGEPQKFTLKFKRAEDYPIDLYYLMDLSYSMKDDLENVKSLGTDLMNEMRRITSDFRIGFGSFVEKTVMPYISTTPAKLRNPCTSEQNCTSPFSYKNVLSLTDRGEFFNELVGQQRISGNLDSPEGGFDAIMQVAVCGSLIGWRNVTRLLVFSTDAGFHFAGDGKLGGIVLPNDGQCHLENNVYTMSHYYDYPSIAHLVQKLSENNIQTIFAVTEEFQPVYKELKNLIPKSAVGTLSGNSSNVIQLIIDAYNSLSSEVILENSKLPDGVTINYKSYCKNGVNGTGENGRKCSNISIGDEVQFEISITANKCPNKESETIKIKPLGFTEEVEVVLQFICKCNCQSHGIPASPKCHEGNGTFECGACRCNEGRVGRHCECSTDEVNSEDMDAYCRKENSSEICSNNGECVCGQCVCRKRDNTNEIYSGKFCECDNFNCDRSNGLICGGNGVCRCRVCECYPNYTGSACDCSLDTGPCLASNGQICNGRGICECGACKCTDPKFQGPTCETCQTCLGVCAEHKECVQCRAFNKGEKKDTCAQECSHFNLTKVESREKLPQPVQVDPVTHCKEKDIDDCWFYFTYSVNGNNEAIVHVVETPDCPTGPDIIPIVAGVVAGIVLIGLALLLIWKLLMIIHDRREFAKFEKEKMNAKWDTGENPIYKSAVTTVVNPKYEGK

Results are given in words; binding and its absence hold for the method and conditions named. Binding seen in cells or lysates may run through a third protein. Some binding calls cover weakened binding; strength is not graded here.

For the test, the target named is T1, secreted protein acidic and rich in cysteine (SPARC) (mouse (endogenous in mouse prefrontal cortex)) (UniProt P07214).
T1 sequence: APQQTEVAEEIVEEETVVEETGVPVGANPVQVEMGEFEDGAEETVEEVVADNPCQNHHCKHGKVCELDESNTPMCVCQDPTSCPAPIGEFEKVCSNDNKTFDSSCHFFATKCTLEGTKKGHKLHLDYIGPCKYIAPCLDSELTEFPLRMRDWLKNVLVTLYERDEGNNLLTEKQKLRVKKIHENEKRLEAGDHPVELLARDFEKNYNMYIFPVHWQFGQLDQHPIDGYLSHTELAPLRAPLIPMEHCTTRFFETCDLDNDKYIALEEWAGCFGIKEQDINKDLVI
Description: co-IP.

Regarding COL1A2 (from UniProt Q01149 86-1125), the binding entry was “binds”.

Consider COL5A1 (from UniProt O88207 37-1838), for which the binding result was “binds”. In the case of ITGB1 (from UniProt P09055 21-798) it was “binds”.

B1: integrin b3 (ITGB3) (protein, UniProt O54890 26-787)
chain: ESNICTTRGVNSCQQCLAVSPVCAWCSDETLSQGSPRCNLKENLLKDNCAPESIEFPVSEAQILEARPLSSKGSGSSAQITQVSPQRIALRLRPDDSKIFSLQVRQVEDYPVDIYYLMDLSFSMKDDLSSIQTLGTKLASQMRKLTSNLRIGFGAFVDKPVSPYMYISPPQAIKNPCYNMKNACLPMFGYKHVLTLTDQVSRFNEEVKKQSVSRNRDAPEGGFDAIMQATVCDEKIGWRNDASHLLVFTTDAKTHIALDGRLAGIVLPNDGHCHIGTDNHYSASTTMDYPSLGLMTEKLSQKNINLIFAVTENVVSLYQNYSELIPGTTVGVLSDDSSNVLQLIVDAYGKIRSKVELEVRDLPEELSLSFNATCLNNEVIPGLKSCVGLKIGDTVSFSIEAKVRGCPQEKEQSFTIKPVGFKDSLTVQVTFDCDCACQAFAQPSSPRCNNGNGTFECGVCRCDQGWLGSMCECSEEDYRPSQQEECSPKEGQPICSQRGECLCGQCVCHSSDFGKITGKYCECDDFSCVRYKGEMCSGHGQCNCGDCVCDSDWTGYYCNCTTRTDTCMSTNGLLCSGRGNCECGSCVCVQPGSYGDTCEKCPTCPDACSFKKECVECKKFNRGTLHEENTCSRYCRDDIEQVKELTDTGKNAVNCTYKNEDDCVVRFQYYEDTSGRAVLYVVEEPECPKGPDILVVLLSVMGAILLIGLATLLIWKLLITIHDRKEFAKFEEERARAKWDTANNPLYKEATSTFTNITYRGT
Consider B1, for which the binding result is “binds”.
